Assay results reported in PMC9037272.

How the values were obtained:
[1] = target: T1, EYFP-CG4364 (Drosophila melanogaster) (UniProt Q9VL96); experiment: FRET or BRET; FRET efficiency by flow cytometry in co-transfected HEK-293T cells 24 h post-transfection; donor mCerulean fusion, acceptor mEYFP fusion; Cer alone as negative control
T1 sequence: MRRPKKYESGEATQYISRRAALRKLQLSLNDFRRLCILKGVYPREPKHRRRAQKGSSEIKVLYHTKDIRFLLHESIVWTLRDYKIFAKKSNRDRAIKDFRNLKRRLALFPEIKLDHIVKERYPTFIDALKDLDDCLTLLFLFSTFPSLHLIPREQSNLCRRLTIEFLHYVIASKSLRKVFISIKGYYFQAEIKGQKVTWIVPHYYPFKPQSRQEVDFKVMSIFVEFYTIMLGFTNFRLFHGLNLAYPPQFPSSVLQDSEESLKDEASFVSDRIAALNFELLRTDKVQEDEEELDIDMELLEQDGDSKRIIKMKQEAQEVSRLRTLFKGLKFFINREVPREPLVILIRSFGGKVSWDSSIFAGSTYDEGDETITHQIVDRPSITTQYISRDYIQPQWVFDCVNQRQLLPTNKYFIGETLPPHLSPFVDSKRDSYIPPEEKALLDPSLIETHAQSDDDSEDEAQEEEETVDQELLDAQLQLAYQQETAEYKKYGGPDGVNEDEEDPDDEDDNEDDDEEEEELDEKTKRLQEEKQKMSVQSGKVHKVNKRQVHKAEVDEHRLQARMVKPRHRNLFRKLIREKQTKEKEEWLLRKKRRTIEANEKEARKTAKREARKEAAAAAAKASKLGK

[2] = target: T2, EYFP-CCT7 (Drosophila melanogaster) (UniProt Q9VHL2); experiment: as above
T2 sequence: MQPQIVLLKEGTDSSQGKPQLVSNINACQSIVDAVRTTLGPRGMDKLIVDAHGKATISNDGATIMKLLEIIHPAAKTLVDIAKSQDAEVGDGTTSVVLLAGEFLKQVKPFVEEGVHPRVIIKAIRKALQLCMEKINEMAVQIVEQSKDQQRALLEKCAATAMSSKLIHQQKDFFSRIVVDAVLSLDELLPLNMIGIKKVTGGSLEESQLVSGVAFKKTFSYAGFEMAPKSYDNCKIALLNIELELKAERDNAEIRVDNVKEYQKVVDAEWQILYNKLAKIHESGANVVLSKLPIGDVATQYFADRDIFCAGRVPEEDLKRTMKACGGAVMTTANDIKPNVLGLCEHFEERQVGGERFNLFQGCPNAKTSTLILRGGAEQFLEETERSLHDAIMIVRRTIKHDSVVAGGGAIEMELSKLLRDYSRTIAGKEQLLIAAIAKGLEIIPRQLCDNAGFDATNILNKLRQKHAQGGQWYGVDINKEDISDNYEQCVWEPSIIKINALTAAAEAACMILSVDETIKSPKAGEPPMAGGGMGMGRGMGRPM

[3] = target: Drosophila PEBP CG7054, split-mRFP fusion (NmRFP-CG7054) (Drosophila melanogaster); experiment: split reporter; split mRFP fusions (NmRFP, CmRFP; all combinations of C- or N-terminal fusions tested) transiently expressed in infiltrated N. benthamiana leaves; confocal microscopy; interaction confirmed if at least five independent images showed fluorescence
[4] = target: NtFT4, split-mRFP fusion for BiFC (tobacco (Nicotiana tabacum)); experiment: as above
[5] = target: NtFT2, split-mRFP fusion for BiFC (tobacco (Nicotiana tabacum)); experiment: as above
[6] = target: NtFT2, two-hybrid bait (pGBKT7-NtFT2) (tobacco (Nicotiana tabacum)); experiment: two-hybrid; Matchmaker Gold system; pGBKT7-NtFT2 bait in S. cerevisiae Y2HGold screened against a normalized Drosophila cDNA library; full-length coding sequences in pGADT7 re-analysed in a drop test on selective medium
[7] = target: HA-EGFP-NtFT4 (tobacco (Nicotiana tabacum)); experiment: co-IP; S2 cells transiently co-transfected with HA-EGFP-NtFT4 and a Myc-tagged partner; magnetic anti-HA beads; eluates blotted with anti-Myc

For “Cer-NtFT4 (mCerulean fusion of NtFT4) (tobacco (Nicotiana tabacum))”, the binding [1] was “binds” and the binding [2] was “binds”.

B1: RHEB, split-mRFP fusion for BiFC (protein, UniProt Q9VND8 1-182)
chain: MPTKERHIAMMGYRSVGKSSLCIQFVEGQFVDSYDPTIENTFTKIERVKSQDYIVKLIDTAGQDEYSIFPVQYSMDYHGYVLVYSITSQKSFEVVKIIYEKLLDVMGKKYVPVVLVGNKIDLHQERTVSTEEGKKLAESWRAAFLETSAKQNESVGDIFHQLLILIENENGNPQEKSGCLVS
With B1 the binding [3] was “binds”, the binding [4] was “binds” and the binding [5] was “binds”.

B2: RHEB, two-hybrid prey (pGADT7) (protein, UniProt Q9VND8 1-182)
chain: B1 chain
B2 was tested, and the binding [6] was “binds”.

B3: 4E-T, two-hybrid prey (pGADT7) (protein, UniProt Q8IH18 1-1010)
chain: MDTSKISARYSKVDLLALRYEGKSRQRPQCSTRLELQTLGFWKINLNTAALTVSSAYSNQNKNRLSPEADNSSLICSNSSSISSRRAMRNRERANNYYQRFVPTDSLLISGEDKDKDALSHGQPYKLNIIDHRSISSSHLMPAFAKRRFVISKGSNSEESNEGINTCASKGKAASSPSRKGSELDTAETCLNFVQPDHDQCMSSSPTFSTSRQERRIGSGRLLPRSDNWDYKNEKTVEASIENEKETSPNGSGSTSSLNQHNQSQHRSRTFSGRLVERVPEVTDRRFQYDSKKSFDRQGINNRRISGKEPFSTQSRSKRGNSYLIHEEPEWFSAGPKSQLETIDLHGFEDLEKNEERSVTEDKNNQIQQLDKNLDAQASKDEASMRNSNDSLNFREVIPSDEKKHTDENVVTSIQNSTDLGHPNKNKPIQMQPSQNPESEFNFDAFLNMHPLDNSVLSNDETGKSDSKGTSRFSRWFRQKEAANNNEFPGFRESHAQEKRGIPSVKDLEAQMIKVDMRTDLINPIAGSLCQTVQMEKPIARDTEAFKKLLQQLGSQARQHHPCNDDCRTINLSNIANHVHLESKLHQKINDGHLQQPELSVNVPTMPTSSHVFLQKRLEIQHLIQRLHCGDVSHDFLEKELDNPSTPAATKDVIATVLNEYSHSKRNPVVTGDPNIFTQQSFLQPQSVHQHYSQELHSQNTANHTINQLISHGNSPTPLAFTPTSVLRKMTADKDTQSPSTYCQNPQYHVHQQNAKQVGTRENVLEPQLTATMAVQPRMILGGGNFAIGQNNQHLSPNMSQSRNQQVLKWTSGNMQMVHGKTFGRPILKGGLNSMPHSNSALPFTAHKIEMQPIHQPHLQQQQHRFKAVQSVESNLNTESVHQNITSPVGWHQLYMQHQQQHHHTRQQLSQRVIYGEMHRQSNPQMSPPVPGFSDSSDSGNVIKANSLTSPSYQRDERISSPTNQLAQWFSPELLAKASAGKLPLLNVNQALSLEEFERSIQHSSGVVHN
For B3, the binding [6] was “binds”.

B4: Myc-CCT7 (protein, UniProt Q9VHL2 1-544)
chain: T2 sequence
B4 was tested, and the binding [7] was “binds”.

B5: Myc-CG4364 (protein, UniProt Q9VL96 1-627)
chain: T1 sequence
For B5, the binding [7] was “binds”.

B6: Myc-Hsp26 (protein, UniProt P02517 1-208)
chain: MSLSTLLSLVDELQEPRSPIYELGLGLHPHSRYVLPLGTQQRRSINGCPCASPICPSSPAGQVLALRREMANRNDIHWPATAHVGKDGFQVCMDVAQFKPSELNVKVVDDSILVEGKHEERQDDHGHIMRHFVRRYKVPDGYKAEQVVSQLSSDGVLTVSIPKPQAVEDKSKERIIQIQQVGPAHLNVKANESEVKGKENGAPNGKDK
B6 was tested, and the binding [7] was “binds”.

No constants are given. Whether binding was seen depends on the method and setting. Binding can be weak; no strength is given. For some of these results: In cells and extracts the contact can be indirect. For some of these results: Where a sequence is shown, tags or fusion partners need not be part of it.
